Binding data for 2 substances are collected here from patent US20140335539A1.

Sequences of proteins named here, by UniProt entry; tags and fusion partners are left off. A change or cut given only in a name is not applied to a line headed by its entry. Residues count along the entry.
UniProt Q92793, residues 587-666: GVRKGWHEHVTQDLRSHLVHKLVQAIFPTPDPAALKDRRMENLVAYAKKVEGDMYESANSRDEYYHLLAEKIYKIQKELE
UniProt P25963: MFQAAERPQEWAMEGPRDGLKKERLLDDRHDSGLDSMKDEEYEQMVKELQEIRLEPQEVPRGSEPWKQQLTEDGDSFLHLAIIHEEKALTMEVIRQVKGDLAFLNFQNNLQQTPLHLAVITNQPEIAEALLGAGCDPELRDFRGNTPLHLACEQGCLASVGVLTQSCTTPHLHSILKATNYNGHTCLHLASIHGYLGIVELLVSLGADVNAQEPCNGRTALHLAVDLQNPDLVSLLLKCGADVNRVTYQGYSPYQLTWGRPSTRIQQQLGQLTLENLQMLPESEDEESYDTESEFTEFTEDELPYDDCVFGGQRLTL
UniProt P16220, residues 87-146: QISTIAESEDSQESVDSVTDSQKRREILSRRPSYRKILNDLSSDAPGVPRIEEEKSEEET

The target of assay [1] is complex containing p50 and p65 (p62(PB1)-p50 with AG-p65). In words: anti-IκBα immunostaining at the same locations as the AG fluorescent foci, HeLaS3 cells.
Another assay has as its target CBP (UniProt Q92793).

No constants are given. Whether binding was seen depends on the method and setting. Some results given as binding are weak or reduced against the parent protein; the word gives no strength.

Consider IκBα (from UniProt P25963 1-317), for which the binding entry in assay [1] is recorded as “binds”.

For the substance CREB (from UniProt P16220 87-146), the binding result in the assay with CBP is on record as “binds”.
